Screening data, single-dose tests

By UniProt entry, the sequences of proteins in these tests, tags left out. Residues count along the entry.
UniProt P9WPC5, whole entry: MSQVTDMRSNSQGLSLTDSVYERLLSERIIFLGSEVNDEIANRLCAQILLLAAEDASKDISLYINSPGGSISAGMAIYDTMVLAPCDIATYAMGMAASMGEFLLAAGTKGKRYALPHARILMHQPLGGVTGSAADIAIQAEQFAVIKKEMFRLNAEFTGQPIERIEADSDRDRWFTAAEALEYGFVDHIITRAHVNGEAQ
UniProt P9WPC3, whole entry partner: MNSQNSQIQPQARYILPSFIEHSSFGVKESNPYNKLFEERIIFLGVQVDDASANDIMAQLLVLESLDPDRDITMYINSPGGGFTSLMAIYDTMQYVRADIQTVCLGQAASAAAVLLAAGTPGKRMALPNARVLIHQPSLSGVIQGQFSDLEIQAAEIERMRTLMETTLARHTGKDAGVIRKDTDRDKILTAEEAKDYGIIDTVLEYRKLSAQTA
UniProt Q4DA54, 1-478: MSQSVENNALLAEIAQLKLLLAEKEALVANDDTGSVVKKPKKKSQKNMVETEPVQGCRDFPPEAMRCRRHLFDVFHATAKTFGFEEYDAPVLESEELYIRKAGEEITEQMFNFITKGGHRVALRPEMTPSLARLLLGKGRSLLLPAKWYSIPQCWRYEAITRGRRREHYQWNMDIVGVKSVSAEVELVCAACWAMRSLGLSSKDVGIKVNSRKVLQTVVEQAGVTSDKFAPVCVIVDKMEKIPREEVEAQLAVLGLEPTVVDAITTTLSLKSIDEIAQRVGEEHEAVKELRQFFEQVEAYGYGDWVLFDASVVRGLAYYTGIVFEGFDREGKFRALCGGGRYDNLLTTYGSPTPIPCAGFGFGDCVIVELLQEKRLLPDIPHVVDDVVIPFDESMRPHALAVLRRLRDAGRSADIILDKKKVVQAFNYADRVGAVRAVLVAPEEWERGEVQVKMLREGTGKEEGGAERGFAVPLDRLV
UniProt P9WNZ1, whole entry: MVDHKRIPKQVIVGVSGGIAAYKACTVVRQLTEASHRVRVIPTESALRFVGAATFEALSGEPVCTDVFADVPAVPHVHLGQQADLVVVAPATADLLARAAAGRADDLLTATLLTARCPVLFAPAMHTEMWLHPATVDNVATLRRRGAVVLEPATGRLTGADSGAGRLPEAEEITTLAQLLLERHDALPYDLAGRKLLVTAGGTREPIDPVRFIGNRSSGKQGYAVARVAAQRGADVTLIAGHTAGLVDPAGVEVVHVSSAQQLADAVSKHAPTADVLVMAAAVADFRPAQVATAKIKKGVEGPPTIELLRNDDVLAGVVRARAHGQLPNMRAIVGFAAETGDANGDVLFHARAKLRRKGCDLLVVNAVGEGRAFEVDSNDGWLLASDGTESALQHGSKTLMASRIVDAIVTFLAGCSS

Measurements from “University of Dundee, Small-Polar-MMV Screening Library” (2021), ChEMBL document CHEMBL3988442.

A: 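ClpP1P2, Mycobacterium tuberculosis (UniProt P9WPC5 and UniProt P9WPC3). Protease assay of ClpP1P2, read by the AMC dye that it sets free. Tested at 50 µM. Direction is inferred from only a few compounds that gave an IC50; most scored high, so higher reads as stronger inhibition. Most other retested compounds had strongly negative values. Size under these conditions: about 69,000 compounds, about 10 of them at 50% or above in at least one test.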
B: 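Assay of Toxoplasma gondii numbers, read through their beta-galactosidase reporter with a colour substrate. Tested at 10 µM. The record gives no direction; the compounds picked for IC50 retests had high values, so higher reads as fewer parasites. About 67,000 compounds were tested under these conditions; 0.38% (about 260) showed 50% or more at least once.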
C: 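Cell assay of Leishmania donovani living inside macrophages; the read-out is not stated. Tested at 30 µM. The record gives no direction; compounds that gave an IC50 in retests scored well above the rest, so higher reads as stronger inhibition. Size under these conditions: about 69,000 compounds, about 1,000 of them at 50% or above in at least one test.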
D: 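Histidine-tRNA ligase, Trypanosoma cruzi CL Brener (UniProt Q4DA54). Enzyme assay of histidyl-tRNA synthetase; the read-out is not stated. Compounds at 30 µM. Direction is inferred from retests: higher values go with stronger inhibition. Size under these conditions: about 69,000 compounds, about 31 of them at 50% or above in at least one test.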
E: 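Coenzyme A biosynthesis protein CoaBC, Mycobacterium tuberculosis (UniProt P9WNZ1). Enzyme assay of CoaBC with a phosphate dye (Biomol Green) read at 650 nm. Tested at 30 µM. Direction is inferred from only a few compounds that gave an IC50; most scored high, so higher reads as stronger inhibition. Most strong results did not repeat in a second test. Of about 67,000 compounds tested this way, about 40 (0.06%) reached 50% or more in at least one test.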

Values are the deposited “Percent Effect”, in %.
How 0% and 100% were set is not recorded. Most values in the screen are low, and negative values occur.
This is an unselected part of the compounds tested.

For O=c1c2ccc(C(F)(F)F)cc2ncn1CCCN1CCCCC1CO (centres undefined) the result was A: 7.313%; C: -35.03%; D: -6.931%; E: -1.823%.
For c1ccc(-c2nccc(CNCC3CCCN3c3cccnn3)n2)cc1 (centres undefined) the result was A: -0.7412%; B: -1.553%; C: -12.46%; D: 14.83%; E: 3.457%.
For COc1cccc(OCC(=O)NS(=O)(=O)c2cc(F)ccc2F)c1 the result was A: -9.792%; B: 4.046%; C: 0.367%; D: 2.956%; E: 3.205%.
For Cc1ccc(-c2nc(CSCCC(=O)NC(N)=O)co2)cc1 the result was A: -2.754%; B: 12.08%; C: 32.43%; D: 9%; E: 5.785%.
For CSc1ccc(CN(CCO)Cc2nccn2C)cc1 the result was A: -4.32%; B: 19.56%; C: 8.7%; D: 2.564%; E: -1.739%.
For CN(C)C(=O)CNC(=O)c1ccc2c(-c3nccs3)noc2c1 the result was A: -8.784%; B: -20.98%; C: -17.95%; D: 3.448%; E: 6.352%.
For Cc1nc2cc(-c3nccn3C)nn2c(N2CCC(O)CC2)c1C.Cl the result was B: 0.4932%; C: -1.779%.
For Cc1cccnc1CN1CCN(Cc2ccc(-c3cc[nH]n3)o2)CC1 the result was A: 13.39%; B: -6.378%; C: 22.82%; D: 9.091%; E: 2.355%.
For CN(C)c1nc2c(c(N3CCCC4(CC3)CNC(=O)O4)n1)CCCC2 (centres undefined) the result was A: 2.664%; B: -7.441%; C: 37.86%; D: 11.11%; E: 0%.
For Cn1ccc(C(=O)Nc2cccc(-c3ccc4c(c3)CCO4)n2)cc1=O the result was A: 4.624%; B: -3.059%; C: 34.93%; D: 4.813%; E: 6.087%.
For O=C(c1ccc(Cn2ccccc2=O)o1)N1CCC2(CC1)OCCO2 the result was A: 1.976%; B: 8.472%; C: 20.65%; D: 3.79%; E: 4.857%.
For CCn1c(SCC(=O)O)nnc1C(C)NC(=O)c1ccc(Cl)cc1 (centres undefined) the result was A: 7.83%; B: 60.13%; C: -34.27%; D: 3.478%; E: -0.4619%.
For O=C(C1CCOCC1)N1CC[C@H](O)[C@@H]1Cc1cccnc1 the result was A: -2.16%; B: -13.59%; C: 25.33%; D: -2.116%; E: 2.222%.
For CC(C(=O)N1CCCC1)N1CCN(c2ncc(Cl)cn2)CC1 (centres undefined) the result was A: -2.396%; B: 8.721%; C: 9.53%; D: 10.5%; E: 0.6369%.
For O=C(Cc1cccs1)NCC(=O)Nc1cn[nH]c1 the result was A: 4.2%; B: 1.876%; C: 26.82%; D: 1.724%; E: 4.762%.
For Cn1cc(C(=O)NCc2cn3c(n2)CN(CC2CCOC2)CC3)cn1.O=C(O)C(F)(F)F.O=C(O)C(F)(F)F (centres undefined) the result was B: 1.7%; C: -18.32%.
For COC(=O)N1CCCCC1C(=O)N1CCC(c2ccncc2)CC1 (centres undefined) the result was A: -13.08%; B: -1.169%; C: 10.86%; D: 4.762%; E: -0.86%.
For CCNC(=O)CN1CCSC2(CCCCC2)C1 the result was A: -20.96%; B: 2.058%; C: 20.82%; D: 1.961%; E: -3.171%.
For O=C1CC(c2ccc(C(=O)O)cc2)c2ncn(-c3ccccc3F)c2N1 (centres undefined) the result was A: 11.23%; B: 1.722%; C: 26.03%; D: 13.64%; E: 5.782%.
For CC(C)N1CCCn2nc(C(=O)NCCc3ccccn3)cc2C1 the result was A: -5.013%; B: 17.12%; C: 21.81%; D: 9.412%; E: 5.651%.
For Cl.Cl.[H][C@@]12OCCC[C@]1([H])NC[C@H]2NC(=O)c1cccnc1 the result was B: 12.43%; C: 19.03%.
For CCN(CC)CC(=O)N1CCN(CCc2ccncc2)CC1 the result was A: -4.472%; B: 1.628%; C: 31.43%; D: -1.807%; E: 1.585%.
For CC(C)n1ccc(=O)nc1SC1CCN(c2ccccc2F)C1=O (centres undefined) the result was A: -7.146%; B: -14.91%; C: 4.589%; D: -1.053%; E: 7.57%.
For O=C(c1ccncc1F)N1CCCC1c1nc(-c2ccccc2)n[nH]1 (centres undefined) the result was A: -9.716%; B: -1.257%; C: 21.16%; D: 4.938%; E: -3.194%.

For reference, 2 entries once more:

* CC(C(=O)N1CCCC1)N1CCN(c2ncc(Cl)cn2)CC1 (centres undefined) : A: -2.396%; B: 8.721%; C: 9.53%; D: 10.5%; E: 0.6369%
* CC(C)N1CCCn2nc(C(=O)NCCc3ccccn3)cc2C1 : A: -5.013%; B: 17.12%; C: 21.81%; D: 9.412%; E: 5.651%